Measured values reported in article PMC9797307, “Measurement of Pharmacokinetics and Tissue Distribution of Four Compounds from Nauclea officinalis in Rat Plasma and Tissues through HPLC-MS/MS” (Journal of Analytical Methods in Chemistry, 2022).

Assay: Extraction recovery of analytes from rat plasma and tissue samples
Details: n = 6

`O=C(/C=C/c1ccc(O)c(O)c1)O[C@@H]1C[C@](O)(C(=O)O)C[C@@H](O)[C@H]1O` [Chlorogenic acid] showed an Extraction recovery (brain, 2 ng/mL) of 82.33 ± 4.65%, an Extraction recovery (brain, 4 ng/mL) of 75.80 ± 3.59% and an Extraction recovery (brain, 100 ng/mL) of 71.37 ± 1.17%. It also gave an Extraction recovery (brain, 2400 ng/mL) of 86.06 ± 1.68%, an Extraction recovery (heart, 2 ng/mL) of 80.53 ± 9.62% and an Extraction recovery (heart, 4 ng/mL) of 76.82 ± 4.77%. The Extraction recovery (heart, 100 ng/mL) was 62.02 ± 2.24%, the Extraction recovery (heart, 2400 ng/mL) was 63.32 ± 0.58% and the Extraction recovery (kidney, 2 ng/mL) was 78.34 ± 4.02%. The Extraction recovery (kidney, 4 ng/mL) was 86.92 ± 3.00%, the Extraction recovery (kidney, 100 ng/mL) was 70.73 ± 4.90% and the Extraction recovery (kidney, 2400 ng/mL) was 72.70 ± 1.50%. It also gave an Extraction recovery (liver, 2 ng/mL) of 97.06 ± 3.75%, an Extraction recovery (liver, 4 ng/mL) of 79.07 ± 2.90% and an Extraction recovery (liver, 100 ng/mL) of 66.44 ± 0.24%. The Extraction recovery (liver, 2400 ng/mL) was 69.83 ± 1.55%, the Extraction recovery (lung, 2 ng/mL) was 81.80 ± 2.52% and the Extraction recovery (lung, 4 ng/mL) was 88.65 ± 1.55%. For the same molecule, the Extraction recovery (lung, 100 ng/mL) was 80.24 ± 2.11%, the Extraction recovery (lung, 2400 ng/mL) was 76.89 ± 1.69% and the Extraction recovery (plasma, 2 ng/mL) was 80.45 ± 4.36%. It also gave an Extraction recovery (plasma, 4 ng/mL) of 80.04 ± 3.08%, an Extraction recovery (plasma, 100 ng/mL) of 69.49 ± 4.05% and an Extraction recovery (plasma, 2400 ng/mL) of 72.26 ± 1.16%. The Extraction recovery (small intestine, 2 ng/mL) was 56.20 ± 3.36%, the Extraction recovery (small intestine, 4 ng/mL) was 51.85 ± 1.94% and the Extraction recovery (small intestine, 100 ng/mL) was 61.26 ± 1.87%. For the same molecule, the Extraction recovery (small intestine, 2400 ng/mL) was 62.66 ± 1.06%, the Extraction recovery (spleen, 2 ng/mL) was 80.09 ± 1.22% and the Extraction recovery (spleen, 4 ng/mL) was 86.82 ± 2.88%. It also gave an Extraction recovery (spleen, 100 ng/mL) of 67.29 ± 1.81%, an Extraction recovery (spleen, 2400 ng/mL) of 73.12 ± 1.61% and an Extraction recovery (stomach, 2 ng/mL) of 85.33 ± 5.20%. The Extraction recovery (stomach, 4 ng/mL) was 91.66 ± 6.11%, the Extraction recovery (stomach, 100 ng/mL) was 66.48 ± 3.94% and the Extraction recovery (stomach, 2400 ng/mL) was 69.41 ± 1.56%.
In the case of `C/C=C1/COC(=O)[C@H]2C(=O)N3CCc4c([nH]c5ccccc45)[C@@H]3C[C@@H]12` [Naucleactonin C], the Extraction recovery (brain, 5 ng/mL) is reported as 88.08 ± 3.12%, the Extraction recovery (brain, 8 ng/mL) is reported as 88.38 ± 7.32% and the Extraction recovery (brain, 140 ng/mL) is reported as 97.63 ± 4.35%. The Extraction recovery (brain, 2400 ng/mL) was 99.47 ± 1.42%, the Extraction recovery (heart, 5 ng/mL) was 97.71 ± 1.95% and the Extraction recovery (heart, 8 ng/mL) was 96.33 ± 7.19%. It also gave an Extraction recovery (heart, 140 ng/mL) of 85.37 ± 2.90%, an Extraction recovery (heart, 2400 ng/mL) of 86.76 ± 1.61% and an Extraction recovery (kidney, 5 ng/mL) of 94.08 ± 8.11%. It also gave an Extraction recovery (kidney, 8 ng/mL) of 105.08 ± 5.22%, an Extraction recovery (kidney, 140 ng/mL) of 86.02 ± 4.39% and an Extraction recovery (kidney, 2400 ng/mL) of 86.64 ± 2.26%. The Extraction recovery (liver, 5 ng/mL) was 92.06 ± 9.87%, the Extraction recovery (liver, 8 ng/mL) was 85.03 ± 4.91% and the Extraction recovery (liver, 140 ng/mL) was 84.88 ± 4.52%. For the same molecule, the Extraction recovery (liver, 2400 ng/mL) was 80.54 ± 0.83%, the Extraction recovery (lung, 5 ng/mL) was 105.63 ± 3.87% and the Extraction recovery (lung, 8 ng/mL) was 99.21 ± 12.43%. For the same molecule, the Extraction recovery (lung, 140 ng/mL) was 95.48 ± 2.88%, the Extraction recovery (lung, 2400 ng/mL) was 84.40 ± 1.82% and the Extraction recovery (plasma, 5 ng/mL) was 100.30 ± 11.77%. For the same molecule, the Extraction recovery (plasma, 8 ng/mL) was 106.68 ± 6.31%, the Extraction recovery (plasma, 140 ng/mL) was 96.41 ± 1.66% and the Extraction recovery (plasma, 2400 ng/mL) was 88.27 ± 1.05%. The Extraction recovery (small intestine, 5 ng/mL) was 98.55 ± 9.61%, the Extraction recovery (small intestine, 8 ng/mL) was 82.00 ± 5.03% and the Extraction recovery (small intestine, 140 ng/mL) was 91.73 ± 1.67%. For the same molecule, the Extraction recovery (small intestine, 2400 ng/mL) was 86.61 ± 3.15%, the Extraction recovery (spleen, 5 ng/mL) was 100.21 ± 9.21% and the Extraction recovery (spleen, 8 ng/mL) was 99.90 ± 5.49%. It also gave an Extraction recovery (spleen, 140 ng/mL) of 84.00 ± 1.54%, an Extraction recovery (spleen, 2400 ng/mL) of 84.60 ± 1.40% and an Extraction recovery (stomach, 5 ng/mL) of 97.93 ± 4.19%. It also gave an Extraction recovery (stomach, 8 ng/mL) of 99.25 ± 3.17%, an Extraction recovery (stomach, 140 ng/mL) of 82.46 ± 1.88% and an Extraction recovery (stomach, 2400 ng/mL) of 75.99 ± 2.77%.
